From paper PMC12170584
These are yes or no findings as the source states them, for the method shown. In cells and extracts the contact can be indirect. Binding calls can cover weak binding; strength is not graded here.

Biological target: FAdV-4 hexon protein (flag-TST-hexon) (fowl adenovirus serotype 4 (FAdV-4))
Assay: co-IP; lysate of LMH cells stably expressing flag-TST-hexon on anti-FLAG magnetic beads, 4°C overnight, FLAG elution; blots with anti-CCT5, anti-CCT7, anti-HSP70; flag control vector cells as control

B1: chaperonin-containing TCP-1 subunit 7 (CCT7) (protein, UniProt Q5ZJK8 1-553)
chain: MMPTPVILLKEGTDTSQGIPQLVSNINACQVIAEAVRTTLGPRGMDKLIVDDRGKATISNDGATILKLLDVVHPAAKTLVDIAKSQDAEVGDGTTSVTLLAAEFLKQVKPYVEEGLHPQIIIRAFRTATQLAVNKIKDIAVSVKKEDKDEQRSLLEKCAATALSSKLISQSKEFFSKMVVDAVMMLDDLLQLKMIGIKKVQGGALEDSQLVAGVAFKKTFSYAGFEMQPKKYQSPKIALLNVELELKAEKDNAEVRVNTVEDYQAIVDAEWNILYDKLDKIHKSGAKVVLSKLPIGDVATQYFADRDMFCAGRVPEEDLKRTMMACGGSIQTSVNALSDDVLGRCELFEEIQIGGDRYNFFTGCPKAKTCTIILRGGAEQFMEETERSLHDAIMIVRRAIKNDSVVAGGGAIEMELSKYLRDYSRTIPGKQQLLIGAYAKALEIIPRQLCDNAGFDATNILNKLRAKHAQGGMWYGVDVNNEDIADNFEACVWEPAIVRINALTAASEAACLIVSVDETIKNPRSTVDAPPGGRGRGRGQTPQPLRPRSVALS
binding: binds
